Laboratory results as given in patent publication US8461328B2, “Tricyclic heterocyclic compounds, compositions and methods of use thereof” (Genentech, Inc., priority 2010, dated 2013).
Some results were stated once for a whole list of compounds, not compound by compound.

Amino acid sequences for entries named in this document (tags omitted). Residues count along the entry.
UniProt P23458, 852-1154: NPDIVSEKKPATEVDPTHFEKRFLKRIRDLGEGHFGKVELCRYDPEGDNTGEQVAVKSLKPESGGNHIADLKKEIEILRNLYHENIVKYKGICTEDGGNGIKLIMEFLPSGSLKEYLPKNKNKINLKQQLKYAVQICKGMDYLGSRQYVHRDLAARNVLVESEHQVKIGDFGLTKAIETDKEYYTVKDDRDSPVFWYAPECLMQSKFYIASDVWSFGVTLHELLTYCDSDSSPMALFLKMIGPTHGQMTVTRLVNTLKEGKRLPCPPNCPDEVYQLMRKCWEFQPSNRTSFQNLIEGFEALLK

Target: T1, human JAK1 kinase domain (Homo sapiens, UniProt P23458)
T1 construct: made in house; host or cells: SF9 insect cells (baculovirus)
Test: JAK1 inhibition assay (Example B), Caliper LabChip peptide phosphorylation
Type: biochemical
Conditions: 1.5 nM JAK1, 25 μM ATP, Morrison tight binding model; read-out: Ki in a JAK1 kinase activity assay (Example B)

Row | SMILES | Ki
1 | CC(C)COCc1nc2cnc3[nH]ccc3c2n1C1CCN(CCC#N)CC1 [Example 407, 3-[4-(2-Isobutoxymethyl-6H-1,3,5,6-tetraaza-as-indacen-1-yl)-piperidin-1-yl]-propionitrile] | < 500 nM
2 | N#Cc1ccc(S(=O)(=O)N2CC[C@@H](n3cnc4cnc5[nH]ccc5c43)C2)cc1 [Example 433, 4-[(R)-3-(6H-1,3,5,6-Tetraaza-as-indacen-1-yl)-pyrrolidine-1-sulfonyl]-benzonitrile] | < 500 nM
3 | N#Cc1cccc(S(=O)(=O)N2CC[C@@H](n3cnc4cnc5[nH]ccc5c43)C2)c1 [Example 434, 3-[(R)-3-(6H-1,3,5,6-Tetraaza-as-indacen-1-yl)-pyrrolidine-1-sulfonyl]-benzonitrile] | < 500 nM
4 | O=S(=O)(Cc1ccccc1)N1CC[C@@H](n2cnc3cnc4[nH]ccc4c32)C1 [Example 435, 1-((R)-1-Phenylmethanesulfonyl-pyrrolidin-3-yl)-1,6-dihydro-1,3,5,6-tetraaza-as-indacene] | < 500 nM
5 | N#Cc1cccc(CN2CC[C@@H](n3cnc4cnc5[nH]ccc5c43)C2)c1 [Example 436, 3-[(R)-3-(6H-1,3,5,6-Tetraaza-as-indacen-1-yl)-pyrrolidin-1-ylmethyl]-benzonitrile] | < 500 nM
6 | O=C(CO)N1CCC(n2cnc3cnc4[nH]ccc4c32)CC1 [Example 437, 2-Hydroxy-1-[4-(6H-1,3,5,6-tetraaza-as-indacen-1-yl)-piperidin-1-yl]-ethanone] | < 500 nM
7 | CN(C)CCC(=O)N1CCC(n2cnc3cnc4[nH]ccc4c32)CC1 [Example 439, 3-Dimethylamino-1-[4-(6H-1,3,5,6-tetraaza-as-indacen-1-yl)-piperidin-1-yl]-propan-1-one] | < 500 nM
8 | O=C(CN1CCCC1=O)N1CCC(n2cnc3cnc4[nH]ccc4c32)CC1 [Example 440, 1-{2-Oxo-2-[4-(6H-1,3,5,6-tetraaza-as-indacen-1-yl)-piperidin-1-yl]-ethyl}-pyrrolidin-2-one] | < 500 nM
9 | O=C(CN1CCCCC1=O)N1CCC(n2cnc3cnc4[nH]ccc4c32)CC1 [Example 441, 1-{2-Oxo-2-[4-(6H-1,3,5,6-tetraaza-as-indacen-1-yl)-piperidin-1-yl]-ethyl}-piperidin-2-one] | < 500 nM
10 | CCS(=O)(=O)N1CCC(n2cnc3cnc4[nH]ccc4c32)CC1 [Example 442, 1-(1-Ethanesulfonyl-piperidin-4-yl)-1,6-dihydro-1,3,5,6-tetraaza-as-indacene] | < 500 nM
11 | O=S(=O)(C1CCCC1)N1CCC(n2cnc3cnc4[nH]ccc4c32)CC1 [Example 443, 1-(1-Cyclopentanesulfonyl-piperidin-4-yl)-1,6-dihydro-1,3,5,6-tetraaza-as-indacene] | < 500 nM
12 | Cc1nc(S(=O)(=O)N2CCC(n3cnc4cnc5[nH]ccc5c43)CC2)cn1C [Example 444, 1-[1-(1,2-Dimethyl-1H-imidazole-4-sulfonyl)-piperidin-4-yl]-1,6-dihydro-1,3,5,6-tetraaza-as-indacene] | < 500 nM
13 | O=C1CCCN1c1ccc(S(=O)(=O)N2CCC(n3cnc4cnc5[nH]ccc5c43)CC2)cc1 [Example 445, 1-{4-[4-(6H-1,3,5,6-Tetraaza-as-indacen-1-yl)-piperidine-1-sulfonyl]-phenyl}-pyrrolidin-2-one] | < 500 nM
14 | N#Cc1ccc(S(=O)(=O)N2CCC(n3cnc4cnc5[nH]ccc5c43)CC2)c(Cl)c1 [Example 446, 3-Chloro-4-[4-(6H-1,3,5,6-tetraaza-as-indacen-1-yl)-piperidine-1-sulfonyl]-benzonitrile] | < 500 nM
15 | Cc1noc(C)c1S(=O)(=O)N1CCC(n2cnc3cnc4[nH]ccc4c32)CC1 [Example 447, 1-[1-(3,5-Dimethyl-isoxazole-4-sulfonyl)-piperidin-4-yl]-1,6-dihydro-1,3,5,6-tetraaza-as-indacene] | < 500 nM
16 | Cc1nn(C)cc1S(=O)(=O)N1CCC(n2cnc3cnc4[nH]ccc4c32)CC1 [Example 448, 1-[1-(1,3-Dimethyl-1H-pyrazole-4-sulfonyl)-piperidin-4-yl]-1,6-dihydro-1,3,5,6-tetraaza-as-indacene] | < 500 nM
17 | O=S(=O)(Cc1ccccc1)N1CCC(n2cnc3cnc4[nH]ccc4c32)CC1 [Example 449, 1-(1-Phenylmethanesulfonyl-piperidin-4-yl)-1,6-dihydro-1,3,5,6-tetraaza-as-indacene] | < 500 nM

Now from value to compound:

Row | Ki | SMILES
18 | < 500 nM | N#CCCN1CCC(n2c(C3CCOCC3)nc3cnc4[nH]ccc4c32)CC1 [Example 385, 3-{4-[2-(Tetrahydro-pyran-4-yl)-6H-1,3,5,6-tetraaza-as-indacen-1-yl]-piperidin-1-yl}-propionitrile]
19 | < 500 nM | N#CCCN1CCC(n2c(CCn3cncn3)nc3cnc4[nH]ccc4c32)CC1 [Example 386, 3-{4-[2-(2-[1,2,4]Triazol-1-yl-ethyl)-6H-1,3,5,6-tetraaza-as-indacen-1-yl]-piperidin-1-yl}-propionitrile]
20 | < 500 nM | CC(=O)N(C)CCc1nc2cnc3[nH]ccc3c2n1C1CCN(CCC#N)CC1 [Example 387, N-(2-{1-[1-(2-Cyano-ethyl)-piperidin-4-yl]-1,6-dihydro-1,3,5,6-tetraaza-as-indacen-2-yl}-ethyl)-N-methyl-acetamide]
21 | < 500 nM | CC(C)C(=O)N1CC(c2nc3cnc4[nH]ccc4c3n2C2CCN(CCC#N)CC2)C1 [Example 389, 3-{4-[2-(1-Isobutyryl-azetidin-3-yl)-6H-1,3,5,6-tetraaza-as-indacen-1-yl]-piperidin-1-yl}-propionitrile]
22 | < 500 nM | Cc1nccn1Cc1nc2cnc3[nH]ccc3c2n1C1CCN(CCC#N)CC1 [Example 402, 3-{4-[2-(2-Methyl-imidazol-1-ylmethyl)-6H-1,3,5,6-tetraaza-as-indacen-1-yl]-piperidin-1-yl}-propionitrile]
23 | < 500 nM | N#CCCN1CCC(n2c(Cc3cccnc3)nc3cnc4[nH]ccc4c32)CC1 [Example 403, 3-[4-(2-Pyridin-3-ylmethyl-6H-1,3,5,6-tetraaza-as-indacen-1-yl)-piperidin-1-yl]-propionitrile]
24 | < 500 nM | N#CCCN1CCC(n2c(Cc3cccc(C#N)c3)nc3cnc4[nH]ccc4c32)CC1 [Example 405, 3-{1-[1-(2-Cyano-ethyl)-piperidin-4-yl]-1,6-dihydro-1,3,5,6-tetraaza-as-indacen-2-ylmethyl}-benzonitrile]
25 | < 500 nM | N#CCCN1CCC(n2c(Cc3ccc(C(N)=O)cc3)nc3cnc4[nH]ccc4c32)CC1 [Example 406, 4-{1-[1-(2-Cyano-ethyl)-piperidin-4-yl]-1,6-dihydro-1,3,5,6-tetraaza-as-indacen-2-ylmethyl}-benzamide]
26 | < 500 nM | N#CCCN1CCC(n2c(CCC3CC3)nc3cnc4[nH]ccc4c32)CC1 [Example 408, 3-{4-[2-(2-Cyclopropyl-ethyl)-6H-1,3,5,6-tetraaza-as-indacen-1-yl]-piperidin-1-yl}-propionitrile]
27 | < 500 nM | Cc1ccnn1CCc1nc2cnc3[nH]ccc3c2n1C1CCN(CCC#N)CC1 [Example 410, 3-(4-{2-[2-(5-Methyl-pyrazol-1-yl)-ethyl]-6H-1,3,5,6-tetraaza-as-indacen-1-yl}-piperidin-1-yl)-propionitrile]
28 | < 500 nM | Cn1cc(CCc2nc3cnc4[nH]ccc4c3n2C2CCN(CCC#N)CC2)cn1 [Example 412, 3-(4-{2-[2-(1-Methyl-1H-pyrazol-4-yl)-ethyl]-6H-1,3,5,6-tetraaza-as-indacen-1-yl}-piperidin-1-yl)-propionitrile]
29 | < 500 nM | Cc1cnn(CCc2nc3cnc4[nH]ccc4c3n2C2CCN(CCC#N)CC2)c1 [Example 413, 3-(4-{2-[2-(4-Methyl-pyrazol-1-yl)-ethyl]-6H-1,3,5,6-tetraaza-as-indacen-1-yl}-piperidin-1-yl)-propionitrile]
30 | < 500 nM | N#CCCN1CCC(n2c(CCn3cccn3)nc3cnc4[nH]ccc4c32)CC1 [Example 414, 3-{4-[2-(2-Pyrazol-1-yl-ethyl)-6H-1,3,5,6-tetraaza-as-indacen-1-yl]-piperidin-1-yl}-propionitrile]
31 | < 500 nM | Cc1nc2cnc3[nH]ccc3c2n1[C@H]1CC[C@@H](C(=O)O)CC1 [Example 420, 4-(2-Methyl-6H-1,3,5,6-tetraaza-as-indacen-1-yl)-cyclohexanecarboxylic acid]
32 | < 500 nM | Cc1nc2cnc3[nH]ccc3c2n1[C@H](C)CO [Example 421, (R)-2-(2-Methyl-6H-1,3,5,6-tetraaza-as-indacen-1-yl)-propan-1-ol]
33 | < 500 nM | Cc1nc2cnc3[nH]ccc3c2n1[C@@H](C)CO [Example 422, (S)-2-(2-Methyl-6H-1,3,5,6-tetraaza-as-indacen-1-yl)-propan-1-ol]
34 | < 500 nM | CCCC1(n2c(C)nc3cnc4[nH]ccc4c32)CC1 [Example 423, 2-Methyl-1-(1-propyl-cyclopropyl)-1,6-dihydro-1,3,5,6-tetraaza-as-indacene]
35 | < 500 nM | COC[C@H](C)n1c(C)nc2cnc3[nH]ccc3c21 [Example 424, 1-((S)-2-Methoxy-1-methyl-ethyl)-2-methyl-1,6-dihydro-1,3,5,6-tetraaza-as-indacene]
36 | < 500 nM | Cc1nc2cnc3[nH]ccc3c2n1C1CC1 [Example 425, 1-Cyclopropyl-2-methyl-1,6-dihydro-1,3,5,6-tetraaza-as-indacene]
37 | < 500 nM | CN(C)CC(=O)N1CC[C@@H](n2cnc3cnc4[nH]ccc4c32)C1 [Example 429, 2-Dimethylamino-1-[(R)-3-(6H-1,3,5,6-tetraaza-as-indacen-1-yl)-pyrrolidin-1-yl]-ethanone]
38 | < 500 nM | O=C(Cc1ccccc1)N1CC[C@@H](n2cnc3cnc4[nH]ccc4c32)C1 [Example 430, 2-Phenyl-1-[(R)-3-(6H-1,3,5,6-tetraaza-as-indacen-1-yl)-pyrrolidin-1-yl]-ethanone]
39 | < 500 nM | N#Cc1ccc(CC(=O)N2CC[C@@H](n3cnc4cnc5[nH]ccc5c43)C2)cc1 [Example 431, 4-{2-Oxo-2-[(R)-3-(6H-1,3,5,6-tetraaza-as-indacen-1-yl)-pyrrolidin-1-yl]-ethyl}-benzonitrile]
40 | < 500 nM | O=S(=O)(c1ccccc1)N1CC[C@@H](n2cnc3cnc4[nH]ccc4c32)C1 [Example 432, 1-((R)-1-Benzenesulfonyl-pyrrolidin-3-yl)-1,6-dihydro-1,3,5,6-tetraaza-as-indacene]
